Experimental data: PubChem BioAssay AID1159584 (Peter MacCallum Cancer Centre, 2016)

Aim: 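Knock-downs that harm CDH1-null cells more than parental MCF10A cells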 (primary screen)
System: human MCF10A breast epithelial cells, parental and CDH1-null
Reagents: siRNA against human genes
Measured: 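Cell viability by CellTiter-Glo ATP luminescence, each line scaled to the mean of mock wells across plates, then CDH1-null over parental ratio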
Scale: CDH1-null / parental viability ratio: higher = CDH1-null cells survive relatively better than parental
Here is a random part of about 18,000 reagents tested. Reagents against one gene are numbered here. Further read-outs or replicates are left out here. Reagent sequences are not shown. The record does not give: the amount of reagent, the time to read-out.

Knock-down of CNTNAP2 (contactin associated protein 2) came out at: CDH1-null / parental viability ratio 1.24.
Depletion of CFAP47 (cilia and flagella associated protein 47) #1 came out at: CDH1-null / parental viability ratio 1.08.
With knock-down of CFAP47 (cilia and flagella associated protein 47) #2, the record shows CDH1-null / parental viability ratio 0.92.
For ZNF555 (zinc finger protein 555), the entry reads CDH1-null / parental viability ratio 1.11.
PPP1CB (protein phosphatase 1 catalytic subunit beta) scored CDH1-null / parental viability ratio 1.14.
After knock-down of PA2G4 (proliferation-associated 2G4), the record shows CDH1-null / parental viability ratio 0.98.
With knock-down of P4HA2 (prolyl 4-hydroxylase subunit alpha 2), the record shows CDH1-null / parental viability ratio 1.12.
Knock-down of NUFIP2 (nuclear FMR1 interacting protein 2) resulted in: CDH1-null / parental viability ratio 1.41.
PSMA3 (proteasome 20S subunit alpha 3) gave CDH1-null / parental viability ratio 1.46.
Knock-down of RIC3 (RIC3 acetylcholine receptor chaperone) came out at: CDH1-null / parental viability ratio 1.15.
After knock-down of NSMCE1 (NSE1 component of SMC5/6 complex), the screen gave CDH1-null / parental viability ratio 0.87.
For PTGIR (prostaglandin I2 receptor), the entry reads CDH1-null / parental viability ratio 1.17.
Against PRR16 (proline rich 16), the values are CDH1-null / parental viability ratio 1.18.
Knock-down of MAST2 (microtubule associated serine/threonine kinase 2) resulted in: CDH1-null / parental viability ratio 0.58.
Knock-down of SLC13A1 gave: CDH1-null / parental viability ratio 1.
GDF7 (growth differentiation factor 7) showed CDH1-null / parental viability ratio 1.17.
SAAL1 (serum amyloid A like 1) scored CDH1-null / parental viability ratio 1.25.
Knock-down of NIPBL (NIPBL cohesin loading factor) came out at: CDH1-null / parental viability ratio 0.92.
Against PREX2, the values are CDH1-null / parental viability ratio 0.97.
After knock-down of IL12RB2 (interleukin 12 receptor subunit beta 2), the screen gave CDH1-null / parental viability ratio 0.82.
DPY19L2 (dpy-19 like 2) showed CDH1-null / parental viability ratio 0.83.
With knock-down of INF2 (inverted formin 2), the record shows CDH1-null / parental viability ratio 0.88.
Depletion of MLYCD (malonyl-CoA decarboxylase) gave: CDH1-null / parental viability ratio 0.97.
ARMC6 (armadillo repeat containing 6) showed CDH1-null / parental viability ratio 1.41.
After knock-down of TGFB3 (transforming growth factor beta 3), the screen gave CDH1-null / parental viability ratio 1.16.
Knock-down of NGRN (neugrin, neurite outgrowth associated) came out at: CDH1-null / parental viability ratio 0.69.
Depletion of MATN1 (matrilin 1) came out at: CDH1-null / parental viability ratio 1.2.
Against MLPH (melanophilin), the values are CDH1-null / parental viability ratio 1.03.
With knock-down of MMEL1 (membrane metalloendopeptidase like 1) the results were CDH1-null / parental viability ratio 1.05.
For MANEAL (mannosidase endo-alpha like), the values are CDH1-null / parental viability ratio 0.38.
Silencing of NENF (neudesin neurotrophic factor) resulted in: CDH1-null / parental viability ratio 1.06.
Knock-down of RDX (radixin) came out at: CDH1-null / parental viability ratio 1.49.
After knock-down of CPSF3 (cleavage and polyadenylation specific factor 3), the record shows CDH1-null / parental viability ratio 1.04.
Against ST6GALNAC6 (ST6 N-acetylgalactosaminide alpha-2,6-sialyltransferase 6), the entry reads CDH1-null / parental viability ratio 1.09.
After knock-down of ZNF680 (zinc finger protein 680), the record shows CDH1-null / parental viability ratio 0.81.
